Laboratory results from patent US20230083243A1.
No constants are given. Whether binding was seen depends on the method and setting. Some results given as binding are weak or reduced against the parent protein; the word gives no strength.

The chains behind the UniProt entries cited, without tags or fusion partners. Where a name states a change or a piece, a line headed by the entry shows the natural chain unless it says otherwise.
UniProt P04003: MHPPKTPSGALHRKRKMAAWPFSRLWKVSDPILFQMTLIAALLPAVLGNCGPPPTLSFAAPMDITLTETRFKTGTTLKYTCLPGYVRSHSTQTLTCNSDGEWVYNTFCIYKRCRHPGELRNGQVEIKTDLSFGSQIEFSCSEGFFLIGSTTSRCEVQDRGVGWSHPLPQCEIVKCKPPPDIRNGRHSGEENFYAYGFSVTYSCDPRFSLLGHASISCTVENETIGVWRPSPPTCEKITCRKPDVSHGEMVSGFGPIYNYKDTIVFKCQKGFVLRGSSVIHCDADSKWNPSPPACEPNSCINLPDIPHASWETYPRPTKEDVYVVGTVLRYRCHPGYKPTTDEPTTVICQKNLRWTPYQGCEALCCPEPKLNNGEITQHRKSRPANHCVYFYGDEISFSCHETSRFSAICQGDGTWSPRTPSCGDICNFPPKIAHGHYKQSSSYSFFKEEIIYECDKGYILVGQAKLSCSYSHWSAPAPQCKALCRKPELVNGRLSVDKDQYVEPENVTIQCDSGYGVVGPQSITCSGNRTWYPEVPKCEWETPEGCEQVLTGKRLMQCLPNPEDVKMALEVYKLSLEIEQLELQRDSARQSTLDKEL
UniProt P20851: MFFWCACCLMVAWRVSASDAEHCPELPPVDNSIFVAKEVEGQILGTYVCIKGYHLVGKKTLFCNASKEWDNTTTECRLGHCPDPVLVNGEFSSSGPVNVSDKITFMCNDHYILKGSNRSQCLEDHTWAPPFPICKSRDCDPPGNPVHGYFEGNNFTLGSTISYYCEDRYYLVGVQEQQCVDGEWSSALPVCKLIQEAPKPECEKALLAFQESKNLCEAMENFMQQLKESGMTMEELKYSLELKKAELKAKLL

T1: reduced Protein S (human) (UniProt P07225)
T1 sequence: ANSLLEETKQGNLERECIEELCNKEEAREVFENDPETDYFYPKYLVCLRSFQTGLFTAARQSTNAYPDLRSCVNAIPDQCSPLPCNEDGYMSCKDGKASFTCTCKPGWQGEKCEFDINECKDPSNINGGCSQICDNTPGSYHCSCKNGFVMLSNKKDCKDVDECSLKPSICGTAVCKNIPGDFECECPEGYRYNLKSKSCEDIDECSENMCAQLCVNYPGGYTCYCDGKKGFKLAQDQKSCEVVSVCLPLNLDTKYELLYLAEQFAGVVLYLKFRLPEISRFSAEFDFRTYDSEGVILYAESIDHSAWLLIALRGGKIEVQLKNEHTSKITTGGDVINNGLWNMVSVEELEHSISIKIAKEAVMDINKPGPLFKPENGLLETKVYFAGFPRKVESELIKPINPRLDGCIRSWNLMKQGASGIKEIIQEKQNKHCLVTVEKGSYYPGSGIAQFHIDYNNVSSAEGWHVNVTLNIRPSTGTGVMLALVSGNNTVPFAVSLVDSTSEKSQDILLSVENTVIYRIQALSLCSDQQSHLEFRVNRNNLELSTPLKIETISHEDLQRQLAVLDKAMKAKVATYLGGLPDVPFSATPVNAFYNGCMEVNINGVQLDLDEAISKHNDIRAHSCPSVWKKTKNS

B1: Antibody 13 (antibody, V domains shown)
VH: QVQLVQSGAEVKKPGSSVKVSCKVSGGTFSSYSISWVRQAPGQGLEWMGGIIPIFGTTNYAQKFQGRVTITADESTSTAYMDLSSLKSEDTAMYYCEGGRVGADFDYWGQGTLVTVSS
VL: SSDLTQGPAVSVALGQTVRITCQGDSLRNYYASWYQQKPGQAPVPVIYGKNDRPSGIPDRFSGSISGNTASLTITGAQAEDEAHYYCNSRDSSGNHVVFGGGTKLTVL
B2: Antibody 2 (antibody, V domains shown)
VH: QVQLQESGPGLVKPSQTLSLTCTVSGGSITSDGYHWSWIRQYPGKGLDWIGYIYYTGNTYYNPSLKSRVTISVGTSQNQFSLKLISVTAADTAVYYCARRLSTGPYFDYWGQGTLVTVSS
VL: QSALTQPASVSGSPGQSITISCTGTSSDVGGYEFVSWYQHHPGKAPKLMIYDVSSRPSGVSNRFSGSKSGNTASLTISGLQAEDEADYYCSSYTRSSTVVFGGGARLTVL
B3: Antibody 1 (antibody, V domains shown)
VH: B1 VH
VL: B1 VL
B4: Antibody 3 (antibody, V domains shown)
VH: EVQLVESGGGLVQPGRSLRLSCAASGFTFDDYAMHWVRQAPGKGLEWVSGITWNSGNIGYADSVKGRFTISRDNAKNSLYLHMNSLRIEDTAFYYCAKGRAVSDTFDIWGQGTMVTVSS
VL: SYELNQPPSVSVSPGQTASITCSGDKLGDKYASWYQQKPGQSPVVAIYQNSKRPSGIPERFSASNSGNTATLTISGTQALDEADYYCQAWDSSTWVFGGGTKLTVL
B5: Antibody 12 (antibody, V domains shown)
VH: QVQLQESGPGLVKPSETLSLTCGVSGGSISSTNWWSWVRQPPGKGLEWIGEIYQTGSTDYDPSLKSRVTISIDKSKNQFSLKLYSVTAADTAVYYCARRFGELDYWGQGTLVTVSS
VL: EIVMTQSPATLSVSPGERATLSCRASQSVTSNLAWYQQKPGQAPRLLIYDASTRATGIPARFSGSGSGTEFTLTISSLQSEDFAIYYCQQYNNWPTFGQGTRLEIK
B6: Antibody 27 (antibody, V domains shown)
VH: QVQLQQSGPGLVKPSQTLSLTCAISGDSVSNNNAAWNWIRQSPSRGLEWLGGTYYRSKWYNDYAVSVKSRIIINPVTSKNQFSLQLNSVTPEDTAVYYCARGSSWYRFFDYWGQGTLVTVSS
VL: EIVLTQSPGTLSLSPGERATLSCRASQSVGSSYLAWYQQKPGQAPRLLISGASGRATGIPDRFSGSGSGTDFTLTISRLEPEDFTVYYCQQYGSSPYTFGQGTKLEIK
B7: Antibody 8 (antibody, V domains shown)
VH: QVQLQESGPGLVKPSETLSLTCAVSGYSISSGYYWGWIRQPPGKGLDWIGSIYYSGSTYYNPSLKSRVTISVDTSKNQISLKLSSVTAADTAVYYCATTYSDIVTGYYNDAFDIWGQGTMVTVSS
VL: EIVMTQSPATLSVSPGERATLSCRASQRINSNLAWYQQKPGQAPRLLIYGASTRATGIPARFSGSGSGTEFTLTISSLQSEDFAAYYCQQYDNWPLTFGGGTKVEIK
B8: Antibody 28 (antibody, V domains shown)
VH: QVQLQQSGTELVRPGTSVKMSCKAAGYTFTNHWIGWVKQRPGHGLEWIGDIYPGGGYTNYNEKFKGKASLTADTSSTTAYMQLSSLTSEDSAIYYCSRFGDQNWAWFAYWGQGTLVTVSA
VL: DIQMNQSPSSLSASLGDTITITCRASQNIHMWLSWYQQKPGNIPKLLIFKTSNLHTGVPSRFSGSGSGTDFTLTISSLQPEDIATYYCLQGQSYPFTFGGGTKLEIK

molecular target: T1, reduced Protein S (human); test: Western blot

binding | Binder
binds | B1

molecular target: Protein S-C4BP complex (human) (UniProt P04003+P20851); test: BLI Octet; antibody on anti-human Fc probe; 100 µg/ml C4BP (C4BP-Protein S complex)

binding | Binder
binds | B2
binds | B3
binds | B4
binds | B5
binds | B6
binds | B7
binds | B8
